No constants are given. Whether binding was seen depends on the method and setting. Some results given as binding are weak or reduced against the parent protein; the word gives no strength.

The results in this text go back to publication doi:10.1101/2025.09.02.673855, “Bacteriophage T4 gene 32 protein: Insights into its Interaction with ssDNA, binding cooperativity, and conformational change” (bioRxiv, 2025).

Assay [1] has as its target T1, gp32 core domain (*III), residues 22-253 (bacteriophage T4) (UniProt P03695).
T1 sequence: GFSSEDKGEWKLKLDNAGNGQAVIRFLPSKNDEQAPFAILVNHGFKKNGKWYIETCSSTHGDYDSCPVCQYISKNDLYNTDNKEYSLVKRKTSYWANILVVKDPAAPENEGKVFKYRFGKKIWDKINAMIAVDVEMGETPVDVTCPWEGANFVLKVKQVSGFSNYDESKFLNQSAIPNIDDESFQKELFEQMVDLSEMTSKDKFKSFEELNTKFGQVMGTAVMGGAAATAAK
The experiment in a line: other fluorescence titration; as the titration of d(εA)11T with the 1:1 mixture of *III and 1-227, at 0.05 M NaCl; data not shown; both purified.

Assay [2] addresses T1, gp32 core domain (*III), residues 22-253 (bacteriophage T4). The experiment in a line: other fluorescence titration; *III, 1-227 or a 1:1 mixture of both added to the 12-residue oligonucleotide d(εA)11T, increase in oligonucleotide fluorescence; 0.01 M NaCl, 0.02 M HEPES pH 7.68, 1x10^-4 M EDTA/Na+; the two proteins meet on the oligonucleotide; both purified.

For “gp32 1-227 truncate (from UniProt P03695 1-227) (domain or fragment)”, the binding result in assay [1] and in assay [2] was “binds” in each case.
